Results are given in words; binding and its absence hold for the method and conditions named. Binding seen in cells or lysates may run through a third protein.
Tests used:
[1] = molecular target: T1, FtsY (SRP receptor, SR), endogenous (E. coli (endogenous in E. coli K-12 MG1655 derivative)) (UniProt P10121); assay: co-IP; anti-Ffh or anti-FtsY antibodies on lysates of ΔftsH (control: Δσ^32) cells in exponential phase, 4°C 14 h, 20 mM Hepes-KOH, 150 mM NaCl, 10 mM EDTA, 10% glycerol, pH 7.5; immunoblot with anti-σ^32 and anti-σ^70
T1 sequence: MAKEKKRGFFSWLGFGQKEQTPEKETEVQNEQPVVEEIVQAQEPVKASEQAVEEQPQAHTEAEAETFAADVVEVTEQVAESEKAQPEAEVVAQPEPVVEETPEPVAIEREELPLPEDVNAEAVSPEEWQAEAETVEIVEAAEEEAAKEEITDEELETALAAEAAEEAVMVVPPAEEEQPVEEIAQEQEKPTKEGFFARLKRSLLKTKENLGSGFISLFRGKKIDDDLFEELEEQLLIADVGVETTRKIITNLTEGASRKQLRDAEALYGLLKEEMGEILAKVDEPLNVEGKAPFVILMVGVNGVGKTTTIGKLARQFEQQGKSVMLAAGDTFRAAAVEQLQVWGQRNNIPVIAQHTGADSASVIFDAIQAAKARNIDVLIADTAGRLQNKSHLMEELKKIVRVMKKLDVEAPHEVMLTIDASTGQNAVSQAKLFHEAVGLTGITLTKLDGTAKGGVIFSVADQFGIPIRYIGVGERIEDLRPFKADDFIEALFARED

Sequences of proteins named here, by UniProt entry; tags and fusion partners are left off.
UniProt P00579: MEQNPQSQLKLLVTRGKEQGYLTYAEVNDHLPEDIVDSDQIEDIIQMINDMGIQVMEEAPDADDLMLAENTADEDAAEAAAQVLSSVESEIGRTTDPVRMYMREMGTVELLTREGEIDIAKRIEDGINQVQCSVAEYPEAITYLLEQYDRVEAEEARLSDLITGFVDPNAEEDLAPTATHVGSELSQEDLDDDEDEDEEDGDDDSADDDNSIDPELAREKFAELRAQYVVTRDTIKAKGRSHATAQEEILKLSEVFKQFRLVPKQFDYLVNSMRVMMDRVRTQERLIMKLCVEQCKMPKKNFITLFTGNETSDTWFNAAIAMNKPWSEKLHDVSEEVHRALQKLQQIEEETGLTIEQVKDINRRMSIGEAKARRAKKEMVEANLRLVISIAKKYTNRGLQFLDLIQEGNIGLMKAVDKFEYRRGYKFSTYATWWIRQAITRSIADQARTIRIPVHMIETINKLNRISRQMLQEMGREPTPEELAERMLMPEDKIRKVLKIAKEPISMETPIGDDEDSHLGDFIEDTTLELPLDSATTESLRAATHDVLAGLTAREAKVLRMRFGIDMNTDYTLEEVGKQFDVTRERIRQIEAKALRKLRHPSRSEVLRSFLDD

[2] = molecular target: T2, Ffh (protein component of the signal recognition particle, SRP), endogenous (E. coli (endogenous in E. coli K-12 MG1655 derivative)) (UniProt P0AGD7); assay: as above
T2 sequence: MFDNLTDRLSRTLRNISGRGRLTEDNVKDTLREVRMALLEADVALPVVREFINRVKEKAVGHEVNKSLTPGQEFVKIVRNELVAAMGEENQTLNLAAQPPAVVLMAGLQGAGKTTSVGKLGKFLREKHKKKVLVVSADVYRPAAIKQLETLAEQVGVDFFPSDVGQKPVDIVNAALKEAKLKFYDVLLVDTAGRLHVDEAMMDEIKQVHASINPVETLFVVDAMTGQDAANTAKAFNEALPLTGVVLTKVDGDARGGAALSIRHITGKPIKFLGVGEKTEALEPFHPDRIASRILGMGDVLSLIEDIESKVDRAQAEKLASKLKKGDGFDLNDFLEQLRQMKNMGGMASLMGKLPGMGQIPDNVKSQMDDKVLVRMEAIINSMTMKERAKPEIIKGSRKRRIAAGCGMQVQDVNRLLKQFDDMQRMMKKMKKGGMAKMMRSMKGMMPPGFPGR

binding [1]: no binding | binding [2]: no binding
Substance: σ^70, endogenous (from UniProt P00579 1-613)
